Data taken from patent publication US8168628B2, “Conjugated psychotropic drugs and uses thereof” (Ramot at Tel-Aviv University Ltd., priority 2001, dated 2012).

How the values were obtained:
B16 MDR = test: Proliferation test, B16 MDR cells; format: cell-based, murine; settings: Mus musculus; linear regression of survival percentage
Protocol: (§1) Cell lines: Human prostate carcinoma (PC-3), human colon carcinoma (HT-29), murine melanoma (B-16) and its drug resistant subclone (B-16 MDR), mouse fibroblasts (3T3), myeloid leukemia (HL 60) and its drug resistant subclone (HL 60 MX2), endometrium cell line (MES SA) and its drug resistant subclone (MES DX5), jurkat T lymphoma and monocyte leukemia (U-937), were used in this study.
(§2) Proliferation of cancer and normal cells: Proliferation was measured by neutral red assay or by a fluorometric assay quantitating DNA content. In the neutral red assay, the neutral red is absorbed by lysosomes, thus causing coloring of living cells. Quantitative analysis is performed by colorimetric assay (ELISA reader at 550 nm). In the fluorometric assay, alamar blue is used as a redox indicator. Alamar blue fluorescence was measured at an excitation wavelength of 544 nm and an emission wavelength of […] (FLUOstar BMG Lab Technologies, Offenburg, Germany).
(§3) The cells were sub-cultured and the tested compounds were added thereto in increasing concentrations. The IC50 values were determined by linear regression of the survival percentage of the cells.

B16 = test: Proliferation test, B16 melanoma cells; format: cell-based, murine; settings: Mus musculus, linear regression of survival percentage
Protocol: as §1, §2, §3

HT-29 = test: Proliferation test, HT-29 cells; format: cell-based; settings: Homo sapiens, linear regression of survival percentage
Protocol: as §1, §2, §3

Normal rat fibroblasts = test: Proliferation test, normal rat fibroblasts; format: cell-based; settings: Fibroblast, linear regression of survival percentage
Protocol: The primary cultures of rat fibroblasts were obtained from neonatal rats using known procedures.
as §2, §3

[1] = test system: normal and transformed cells; test: Proliferation tests, summary over the tested cell lines; format: cell-based; settings: read-out: IC50 range, anti-proliferative activity
Protocol: as §2, §3

Measured: IC50

NCCCC(=O)O [GABA, γ-aminobutyric acid, reference compound]
> 20 mM: all assays above
